From the supplement of paper PMC10849652
The other results are listed elsewhere or left out.

Amino acid sequences for entries named in this document (tags omitted). A change or cut given only in a name is not applied to a line headed by its entry.
UniProt Q7Z4H7: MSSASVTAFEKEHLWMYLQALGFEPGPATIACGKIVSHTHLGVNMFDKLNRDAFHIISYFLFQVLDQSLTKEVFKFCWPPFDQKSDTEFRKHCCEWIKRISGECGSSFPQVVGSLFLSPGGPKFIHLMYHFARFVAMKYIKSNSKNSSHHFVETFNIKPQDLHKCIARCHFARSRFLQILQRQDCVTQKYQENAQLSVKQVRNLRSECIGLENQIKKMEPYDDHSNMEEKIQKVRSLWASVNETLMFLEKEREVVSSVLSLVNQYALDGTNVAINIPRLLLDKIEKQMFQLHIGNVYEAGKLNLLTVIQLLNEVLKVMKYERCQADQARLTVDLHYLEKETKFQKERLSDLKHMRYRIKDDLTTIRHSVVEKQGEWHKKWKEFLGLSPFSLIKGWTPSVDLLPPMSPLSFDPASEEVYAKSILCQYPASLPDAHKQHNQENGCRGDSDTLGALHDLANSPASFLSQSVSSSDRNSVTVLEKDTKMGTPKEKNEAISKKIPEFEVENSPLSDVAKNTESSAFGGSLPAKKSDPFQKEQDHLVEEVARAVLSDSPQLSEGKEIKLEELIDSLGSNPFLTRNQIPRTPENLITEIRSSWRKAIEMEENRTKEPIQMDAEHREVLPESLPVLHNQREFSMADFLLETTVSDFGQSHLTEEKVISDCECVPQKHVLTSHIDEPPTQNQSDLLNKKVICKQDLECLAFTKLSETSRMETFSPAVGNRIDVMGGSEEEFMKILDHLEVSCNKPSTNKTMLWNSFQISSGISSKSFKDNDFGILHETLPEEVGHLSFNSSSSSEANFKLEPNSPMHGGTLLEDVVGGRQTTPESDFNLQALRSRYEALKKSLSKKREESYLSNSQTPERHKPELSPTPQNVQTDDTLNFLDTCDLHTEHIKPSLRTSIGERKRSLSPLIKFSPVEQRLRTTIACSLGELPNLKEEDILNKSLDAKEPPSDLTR
UniProt O00165, whole entry, looked up: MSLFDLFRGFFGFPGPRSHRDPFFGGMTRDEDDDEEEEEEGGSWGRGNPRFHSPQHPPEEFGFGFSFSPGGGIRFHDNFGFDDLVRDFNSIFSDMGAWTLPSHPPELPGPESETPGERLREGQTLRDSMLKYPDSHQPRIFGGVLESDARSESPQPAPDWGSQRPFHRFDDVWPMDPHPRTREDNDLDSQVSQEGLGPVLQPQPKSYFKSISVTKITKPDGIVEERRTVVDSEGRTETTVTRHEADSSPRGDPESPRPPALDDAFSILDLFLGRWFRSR
UniProt Q9Y2Q3: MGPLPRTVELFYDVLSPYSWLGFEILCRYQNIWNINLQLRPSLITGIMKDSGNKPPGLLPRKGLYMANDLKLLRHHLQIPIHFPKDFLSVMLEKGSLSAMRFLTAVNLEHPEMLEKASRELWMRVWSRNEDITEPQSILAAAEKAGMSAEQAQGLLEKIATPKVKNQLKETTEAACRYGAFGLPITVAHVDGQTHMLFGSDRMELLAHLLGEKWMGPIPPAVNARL
UniProt Q9BX10: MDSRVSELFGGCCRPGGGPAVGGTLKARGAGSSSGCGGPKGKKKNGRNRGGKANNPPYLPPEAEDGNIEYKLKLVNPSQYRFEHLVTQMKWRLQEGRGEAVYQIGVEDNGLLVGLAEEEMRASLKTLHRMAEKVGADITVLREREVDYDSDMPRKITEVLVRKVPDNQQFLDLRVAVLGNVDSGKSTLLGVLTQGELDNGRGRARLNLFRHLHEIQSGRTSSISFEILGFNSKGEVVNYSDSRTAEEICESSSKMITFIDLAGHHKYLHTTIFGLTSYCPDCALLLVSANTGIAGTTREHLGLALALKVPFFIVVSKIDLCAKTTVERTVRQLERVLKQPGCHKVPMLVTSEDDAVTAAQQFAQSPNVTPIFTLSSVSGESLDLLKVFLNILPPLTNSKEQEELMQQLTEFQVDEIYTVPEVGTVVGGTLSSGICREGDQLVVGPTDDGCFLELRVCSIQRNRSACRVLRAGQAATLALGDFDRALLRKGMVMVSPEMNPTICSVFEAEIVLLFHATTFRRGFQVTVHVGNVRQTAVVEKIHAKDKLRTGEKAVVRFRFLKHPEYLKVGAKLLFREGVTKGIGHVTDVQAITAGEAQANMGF
UniProt P42694: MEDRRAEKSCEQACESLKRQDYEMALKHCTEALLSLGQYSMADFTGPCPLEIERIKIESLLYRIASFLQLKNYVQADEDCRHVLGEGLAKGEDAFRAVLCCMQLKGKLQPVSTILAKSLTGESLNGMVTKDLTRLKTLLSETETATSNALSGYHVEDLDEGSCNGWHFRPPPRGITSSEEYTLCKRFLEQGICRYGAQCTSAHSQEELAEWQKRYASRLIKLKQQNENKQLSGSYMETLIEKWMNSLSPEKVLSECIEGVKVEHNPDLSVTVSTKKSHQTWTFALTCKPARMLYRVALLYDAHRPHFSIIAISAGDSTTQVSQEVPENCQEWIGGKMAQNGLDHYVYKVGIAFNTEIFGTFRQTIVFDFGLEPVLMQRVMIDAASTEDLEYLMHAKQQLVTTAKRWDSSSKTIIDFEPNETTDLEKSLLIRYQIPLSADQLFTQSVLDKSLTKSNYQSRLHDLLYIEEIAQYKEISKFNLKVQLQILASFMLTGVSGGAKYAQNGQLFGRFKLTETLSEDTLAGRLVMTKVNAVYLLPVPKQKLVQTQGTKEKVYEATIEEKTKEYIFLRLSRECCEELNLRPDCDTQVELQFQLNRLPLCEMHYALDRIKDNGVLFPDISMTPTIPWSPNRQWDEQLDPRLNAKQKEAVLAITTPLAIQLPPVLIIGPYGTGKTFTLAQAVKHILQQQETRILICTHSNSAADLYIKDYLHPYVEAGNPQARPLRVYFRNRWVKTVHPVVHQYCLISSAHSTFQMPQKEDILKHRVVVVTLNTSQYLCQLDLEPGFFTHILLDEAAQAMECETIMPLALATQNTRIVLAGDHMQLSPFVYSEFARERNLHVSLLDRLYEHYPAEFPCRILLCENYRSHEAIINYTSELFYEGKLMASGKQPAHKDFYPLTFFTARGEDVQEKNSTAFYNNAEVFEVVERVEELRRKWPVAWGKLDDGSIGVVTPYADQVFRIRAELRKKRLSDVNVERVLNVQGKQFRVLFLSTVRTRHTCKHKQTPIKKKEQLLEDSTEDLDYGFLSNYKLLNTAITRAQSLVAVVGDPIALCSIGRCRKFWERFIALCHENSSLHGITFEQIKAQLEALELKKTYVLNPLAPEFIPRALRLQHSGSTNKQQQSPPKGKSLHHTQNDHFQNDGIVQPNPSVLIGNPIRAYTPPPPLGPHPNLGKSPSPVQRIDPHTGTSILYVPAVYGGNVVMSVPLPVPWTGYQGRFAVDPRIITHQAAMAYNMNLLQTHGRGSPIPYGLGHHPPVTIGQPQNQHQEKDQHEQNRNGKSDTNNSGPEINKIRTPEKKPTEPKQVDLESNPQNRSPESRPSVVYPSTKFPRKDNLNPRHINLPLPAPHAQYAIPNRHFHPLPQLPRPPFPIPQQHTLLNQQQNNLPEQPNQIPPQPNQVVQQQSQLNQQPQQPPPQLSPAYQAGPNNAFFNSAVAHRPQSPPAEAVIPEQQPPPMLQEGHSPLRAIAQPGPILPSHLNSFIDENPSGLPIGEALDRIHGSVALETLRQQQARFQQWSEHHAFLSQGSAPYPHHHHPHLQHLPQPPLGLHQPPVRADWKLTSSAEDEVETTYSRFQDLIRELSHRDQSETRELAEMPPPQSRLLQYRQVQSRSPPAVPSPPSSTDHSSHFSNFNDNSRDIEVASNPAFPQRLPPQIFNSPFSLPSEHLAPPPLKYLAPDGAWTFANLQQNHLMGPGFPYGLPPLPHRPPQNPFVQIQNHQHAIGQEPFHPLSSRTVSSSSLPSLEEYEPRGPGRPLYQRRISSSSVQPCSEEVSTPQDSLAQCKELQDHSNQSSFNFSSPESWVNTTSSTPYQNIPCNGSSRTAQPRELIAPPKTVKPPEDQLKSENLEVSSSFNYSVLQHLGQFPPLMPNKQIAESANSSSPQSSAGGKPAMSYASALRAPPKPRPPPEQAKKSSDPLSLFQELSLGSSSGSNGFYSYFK
UniProt Q8N4P3, whole entry, looked up: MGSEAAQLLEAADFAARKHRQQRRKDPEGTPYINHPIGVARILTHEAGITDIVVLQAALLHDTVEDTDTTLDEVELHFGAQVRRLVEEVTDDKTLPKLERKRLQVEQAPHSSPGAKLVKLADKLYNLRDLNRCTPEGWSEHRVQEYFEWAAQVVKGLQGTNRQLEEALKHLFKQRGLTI
UniProt P52655, whole entry, looked up: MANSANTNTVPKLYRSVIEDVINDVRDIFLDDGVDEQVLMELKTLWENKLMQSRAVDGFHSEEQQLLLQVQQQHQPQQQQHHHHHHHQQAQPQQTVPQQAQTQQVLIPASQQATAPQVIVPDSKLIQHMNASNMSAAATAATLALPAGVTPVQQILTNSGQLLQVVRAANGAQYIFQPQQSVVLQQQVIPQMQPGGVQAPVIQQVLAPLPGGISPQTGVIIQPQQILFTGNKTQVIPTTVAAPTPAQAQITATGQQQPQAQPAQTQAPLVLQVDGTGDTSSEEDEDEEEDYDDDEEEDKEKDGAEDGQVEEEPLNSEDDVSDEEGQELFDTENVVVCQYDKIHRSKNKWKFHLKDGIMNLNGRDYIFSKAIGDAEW
UniProt O14929: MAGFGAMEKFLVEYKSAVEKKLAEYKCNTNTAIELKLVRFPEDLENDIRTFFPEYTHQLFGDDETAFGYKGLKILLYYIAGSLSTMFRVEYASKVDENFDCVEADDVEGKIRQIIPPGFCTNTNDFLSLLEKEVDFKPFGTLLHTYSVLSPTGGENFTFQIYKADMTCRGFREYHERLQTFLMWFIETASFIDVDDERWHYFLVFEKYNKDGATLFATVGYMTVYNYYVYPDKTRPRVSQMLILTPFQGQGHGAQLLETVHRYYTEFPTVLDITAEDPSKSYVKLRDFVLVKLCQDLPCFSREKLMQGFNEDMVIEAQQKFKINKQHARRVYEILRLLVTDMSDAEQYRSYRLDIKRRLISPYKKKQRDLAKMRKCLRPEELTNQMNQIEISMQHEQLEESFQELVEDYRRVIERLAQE
UniProt P16401, whole entry, looked up: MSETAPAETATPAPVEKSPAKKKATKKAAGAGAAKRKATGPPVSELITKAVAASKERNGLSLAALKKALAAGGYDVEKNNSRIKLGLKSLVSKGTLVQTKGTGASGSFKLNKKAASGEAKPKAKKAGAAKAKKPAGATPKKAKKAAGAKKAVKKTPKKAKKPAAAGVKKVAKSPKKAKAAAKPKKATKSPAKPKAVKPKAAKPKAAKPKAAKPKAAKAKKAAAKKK
UniProt P13984, whole entry, looked up: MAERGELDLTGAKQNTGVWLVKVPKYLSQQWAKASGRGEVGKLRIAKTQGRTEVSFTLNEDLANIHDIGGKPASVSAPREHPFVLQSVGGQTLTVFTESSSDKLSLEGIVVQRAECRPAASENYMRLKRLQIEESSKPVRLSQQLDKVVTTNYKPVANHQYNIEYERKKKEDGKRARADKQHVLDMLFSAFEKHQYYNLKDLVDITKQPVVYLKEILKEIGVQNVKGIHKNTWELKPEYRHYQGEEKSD
UniProt Q9Y450, whole entry, looked up: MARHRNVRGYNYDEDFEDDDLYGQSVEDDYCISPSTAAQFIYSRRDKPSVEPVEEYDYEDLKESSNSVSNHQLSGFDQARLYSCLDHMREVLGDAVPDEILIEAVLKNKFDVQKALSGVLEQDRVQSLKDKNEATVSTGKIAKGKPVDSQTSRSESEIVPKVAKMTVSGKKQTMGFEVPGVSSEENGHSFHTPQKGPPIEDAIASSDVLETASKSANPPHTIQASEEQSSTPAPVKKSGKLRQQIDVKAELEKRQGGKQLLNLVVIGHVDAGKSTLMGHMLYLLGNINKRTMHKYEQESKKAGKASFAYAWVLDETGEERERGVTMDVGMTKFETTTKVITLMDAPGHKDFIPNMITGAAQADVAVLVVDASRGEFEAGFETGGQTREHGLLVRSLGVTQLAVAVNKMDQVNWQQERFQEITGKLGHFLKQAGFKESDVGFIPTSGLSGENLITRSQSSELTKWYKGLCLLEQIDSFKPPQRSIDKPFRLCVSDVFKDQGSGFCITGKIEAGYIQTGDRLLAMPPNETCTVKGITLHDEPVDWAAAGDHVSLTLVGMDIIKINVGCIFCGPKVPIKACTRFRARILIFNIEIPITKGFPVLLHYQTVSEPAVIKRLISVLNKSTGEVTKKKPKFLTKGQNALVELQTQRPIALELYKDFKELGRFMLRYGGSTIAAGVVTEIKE
UniProt P04921: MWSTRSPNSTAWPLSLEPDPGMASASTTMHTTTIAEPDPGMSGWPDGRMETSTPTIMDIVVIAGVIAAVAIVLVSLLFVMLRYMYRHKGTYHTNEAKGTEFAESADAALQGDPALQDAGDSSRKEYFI
UniProt P69892: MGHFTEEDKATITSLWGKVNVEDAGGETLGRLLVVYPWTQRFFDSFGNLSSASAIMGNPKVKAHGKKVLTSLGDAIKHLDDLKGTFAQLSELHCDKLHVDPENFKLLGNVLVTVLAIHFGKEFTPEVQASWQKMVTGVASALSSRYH
UniProt P69905, whole entry, looked up: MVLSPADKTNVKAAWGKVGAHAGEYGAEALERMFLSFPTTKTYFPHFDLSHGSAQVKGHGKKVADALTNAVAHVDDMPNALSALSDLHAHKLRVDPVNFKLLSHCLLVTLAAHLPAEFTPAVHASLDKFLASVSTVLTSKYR

How the values were obtained:
Assay in all cases: log2 fold change, soluble protein after heating vs DMSO (PISA); higher = thermal stabilisation; K562 cells, 10 uM, 30 min; active = over 0.2 and 3.5 SD of the protein, either way, in both replicates (recomputed)
[1] = compound: COC1=CC=C(C=C1)CN2C=CC3=C2C=C(C=C3)C(=O)NO
How it was run: (§1)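 K562 cells at 2×10^6 cells/mL were treated with 10 μM compound for 30 min. Aliquots were heated for 3 min across 48°C-58°C, pooled, and extracted in PBS with 0.5% NP-40 at 4°C; soluble protein was the supernatant after 21,000xg for 90 min. Soluble protein was quantified by TMTpro 16plex LC-MS/MS with channel sums equalised, and reported as log2 fold change in thermal stability against DMSO controls, with values from duplicates.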

filanesib = compound: CON(C)C(=O)N1N=C(c2cc(F)ccc2F)S[C@@]1(CCCN)c1ccccc1 [filanesib]
How it was run: as §1

zotarolimus = compound: CO[C@H]1C[C@@H]2CC[C@@H](C)[C@@](O)(O2)C(=O)C(=O)N2CCCC[C@H]2C(=O)O[C@H]([C@H](C)C[C@@H]2CC[C@H](n3cnnn3)[C@H](OC)C2)CC(=O)[C@H](C)/C=C(\C)[C@@H](O)[C@@H](OC)C(=O)[C@H](C)C[C@H](C)/C=C/C=C/C=C/1C [zotarolimus]
How it was run: as §1

idasanutlin = compound: COc1cc(C(=O)O)ccc1NC(=O)[C@@H]1N[C@@H](CC(C)(C)C)[C@](C#N)(c2ccc(Cl)cc2F)[C@H]1c1cccc(Cl)c1F [idasanutlin]
How it was run: as §1

alisertib = compound: COc1cc(Nc2ncc3c(n2)-c2ccc(Cl)cc2C(c2c(F)cccc2OC)=NC3)ccc1C(=O)O [alisertib]
How it was run: as §1

[2] = compound: COc1cc2nc(-c3cc(F)ccc3O)nc(N[C@@H]3CNC[C@H]3C(C)(C)O)c2cc1OC
How it was run: as §1

gefitinib = compound: COc1cc2ncnc(Nc3ccc(F)c(Cl)c3)c2cc1OCCCN1CCOCC1 [gefitinib]
How it was run: as §1

[3] = compound: COc1cccc2cc(-c3nc([C@H]4CC[C@H](C(=O)O)CC4)n4ncnc(N)c34)[nH]c12
How it was run: as §1

lapatinib = compound: CS(=O)(=O)CCNCc1ccc(-c2ccc3ncnc(Nc4ccc(OCc5cccc(F)c5)c(Cl)c4)c3c2)o1 [lapatinib]
How it was run: as §1

pictilisib = compound: CS(=O)(=O)N1CCN(Cc2cc3nc(-c4cccc5[nH]ncc45)nc(N4CCOCC4)c3s2)CC1 [pictilisib]
How it was run: as §1

Measured: log2 fold change

HAUS6 (UniProt Q7Z4H7)
inactive: [1] -0.069 | filanesib 0.265 | zotarolimus 0.073 | idasanutlin -0.041 | alisertib 0.049 | [2] -0.245 | gefitinib 0.076 | [3] -0.173 | lapatinib 0.173

HBD (UniProt P02042)
inactive: [1] 0.004 | filanesib 0.046 | zotarolimus -0.04 | idasanutlin -0.066 | alisertib -0.044 | [2] -0.146 | gefitinib 0.015 | [3] 0.07 | lapatinib 0.164 | pictilisib 0.175

HAX1 (UniProt O00165)
inactive: [1] -0.056 | filanesib 0.017 | zotarolimus 0.004 | idasanutlin 0.04 | alisertib -0.007 | [2] -0.311 | gefitinib -0.041 | [3] -0.014 | lapatinib -0.015 | pictilisib -0.145

GSTK1 (UniProt Q9Y2Q3)
inactive: [1] -0.038 | filanesib -0.003 | zotarolimus 0.066 | idasanutlin -0.115 | alisertib -0.078 | [2] 0.045 | gefitinib 0.027 | [3] 0.029 | lapatinib -0.039 | pictilisib 0.016

GTPBP2 (UniProt Q9BX10)
inactive: [1] -0.01 | filanesib 0.022 | zotarolimus 0.062 | idasanutlin 0.048 | alisertib -0.035 | [2] 0.076 | gefitinib 0.098 | [3] -0.019 | lapatinib -0.084 | pictilisib -0.095

HECTD1 (UniProt Q9ULT8)
inactive: [1] -0.039 | filanesib 0.091 | zotarolimus 0.023 | idasanutlin 0.047 | alisertib 0.087 | [2] -0.04 | gefitinib -0.016 | [3] -0.132 | lapatinib 0.096 | pictilisib 0.02

HELZ (UniProt P42694)
inactive: [1] -0.096 | filanesib 0.157 | zotarolimus -0.108 | idasanutlin -0.038 | alisertib -0.118 | [2] 0.056 | gefitinib -0.006 | [3] -0.273 | lapatinib 0.165 | pictilisib 0.098

H4C1 (UniProt P62805)
inactive: [1] 0.103 | filanesib 0.15 | zotarolimus -0.215 | idasanutlin 0.507 | alisertib 0.077 | [2] -0.149 | gefitinib 0.011 | [3] -0.42 | lapatinib 0.074 | pictilisib 0.004

HDDC3 (UniProt Q8N4P3)
inactive: [1] -0.138 | filanesib -0.004 | zotarolimus -0.032 | idasanutlin 0.037 | alisertib -0.072 | [2] -0.021 | gefitinib -0.001 | [3] 0.054 | lapatinib -0.066 | pictilisib 0.026

GTPBP10 (UniProt A4D1E9)
inactive: [1] -0.032 | filanesib 0.096 | zotarolimus 0.151 | idasanutlin 0.075 | alisertib -0.029 | [2] 0.031 | gefitinib 0.083 | [3] -0.045 | lapatinib 0.029 | pictilisib -0.021

GTF2E2 (UniProt P29084)
inactive: [1] -0.014 | filanesib 0.034 | zotarolimus 0.027 | idasanutlin -0.03 | alisertib -0.027 | [2] 0 | gefitinib 0.009 | [3] -0.056 | lapatinib 0.022 | pictilisib 0.031

GTF2A1 (UniProt P52655)
inactive: [1] -0.102 | filanesib 0.031 | zotarolimus 0 | idasanutlin 0.012 | alisertib -0.126 | [2] -0.069 | gefitinib 0.111 | [3] 0.043 | lapatinib 0.006 | pictilisib 0.012

HAT1 (UniProt O14929)
inactive: [1] 0.14 | filanesib -0.049 | zotarolimus 0.075 | idasanutlin 0.055 | alisertib 0.019 | [2] 0.066 | gefitinib 0.008 | [3] -0.014 | lapatinib -0.002 | pictilisib -0.076

H1-5 (UniProt P16401)
inactive: [1] -0.087 | filanesib 0.449 | zotarolimus -0.029 | idasanutlin 0.186 | alisertib -0.163 | [2] -0.096 | gefitinib 0.001 | [3] -0.34 | lapatinib 0.034 | pictilisib -0.132

GTF3A (UniProt Q92664)
inactive: [1] 0.092 | filanesib -0.138 | zotarolimus 0.067 | idasanutlin -0.018 | alisertib 0.014 | [2] -0.225 | gefitinib -0.139 | [3] -0.006 | lapatinib 0.099 | pictilisib -0.042

H1FX (UniProt Q92522)
inactive: [1] -0.116 | filanesib 0.112 | zotarolimus 0.049 | idasanutlin 0.161 | alisertib -0.147 | [2] 0.033 | gefitinib -0.044 | [3] -0.24 | lapatinib 0.133 | pictilisib -0.134

Retrieved one by one from above (2):
HAT1 (UniProt O14929)
inactive: [1] 0.14 | filanesib -0.049 | zotarolimus 0.075 | idasanutlin 0.055 | alisertib 0.019 | [2] 0.066 | gefitinib 0.008 | [3] -0.014 | lapatinib -0.002 | pictilisib -0.076

H1-5 (UniProt P16401)
inactive: [1] -0.087 | filanesib 0.449 | zotarolimus -0.029 | idasanutlin 0.186 | alisertib -0.163 | [2] -0.096 | gefitinib 0.001 | [3] -0.34 | lapatinib 0.034 | pictilisib -0.132

Additional records:

HELB (UniProt Q8NG08)
inactive: [1] -0.054 | filanesib -0.042 | zotarolimus 0.031 | idasanutlin -0.029 | alisertib -0.046 | [2] -0.004 | gefitinib 0.02 | [3] -0.016 | lapatinib 0.091 | pictilisib 0.146

HDGF (UniProt P51858)
inactive: [1] 0.044 | filanesib -0.019 | zotarolimus -0.001 | idasanutlin 0.005 | alisertib -0.025 | [2] -0.031 | gefitinib 0.009 | [3] 0.003 | lapatinib -0.018 | pictilisib 0.012

GTF2F2 (UniProt P13984)
inactive: [1] -0.012 | filanesib -0.032 | zotarolimus 0.019 | idasanutlin -0.028 | alisertib -0.004 | [2] 0.038 | gefitinib 0.031 | [3] 0.002 | lapatinib -0.028 | pictilisib 0.027

GTF3C4 (UniProt Q9UKN8)
inactive: [1] -0.038 | filanesib 0.034 | zotarolimus 0.019 | idasanutlin -0.003 | alisertib -0.032 | [2] 0.007 | gefitinib 0.058 | [3] -0.011 | lapatinib 0.029 | pictilisib 0.028

GSPT1 isoform 3 (UniProt P15170)
inactive: [1] -0.02 | filanesib -0.069 | zotarolimus 0.004 | idasanutlin -0.085 | alisertib -0.032 | [2] 0.032 | gefitinib -0.012 | [3] 0.019 | lapatinib -0.021 | pictilisib 0.077

HBS1L (UniProt Q9Y450)
inactive: [1] 0.017 | filanesib -0.024 | zotarolimus -0.034 | idasanutlin -0.028 | alisertib -0.017 | [2] 0.051 | gefitinib -0.006 | [3] -0.015 | lapatinib 0.005 | pictilisib 0.017

HERC1 (UniProt Q15751)
inactive: [1] 0.002 | filanesib 0.017 | zotarolimus 0.017 | idasanutlin -0.028 | alisertib -0.015 | [2] 0.025 | gefitinib -0.007 | [3] -0.008 | lapatinib 0.073 | pictilisib -0.011

GTSE1 (UniProt Q9NYZ3)
inactive: [1] -0.201 | filanesib 0.303 | zotarolimus -0.085 | idasanutlin 0.111 | alisertib 0.105 | [2] 0.075 | gefitinib -0.007 | [3] -0.07 | lapatinib 0.091 | pictilisib -0.016

GSN (UniProt P06396)
inactive: [1] 0.015 | filanesib -0.013 | zotarolimus -0.146 | idasanutlin 0.047 | alisertib 0.108 | [2] -0.015 | gefitinib -0.059 | [3] 0.226 | lapatinib -0.03 | pictilisib -0.034

GYPC (UniProt P04921)
inactive: [1] 0.058 | filanesib 0.036 | zotarolimus 0.209 | idasanutlin 0.169 | alisertib -0.056 | [2] 0.21 | gefitinib 0.069 | [3] 0.102 | lapatinib -0.01 | pictilisib -0.019

GYPA (UniProt P02724)
inactive: [1] 0.072 | filanesib 0.002 | zotarolimus -0.016 | idasanutlin 0.14 | alisertib -0.11 | [2] 0.019 | gefitinib 0.063 | [3] -0.053 | lapatinib 0.078 | pictilisib 0.016

HBG2 (UniProt P69892)
inactive: [1] 0.118 | filanesib -0.092 | zotarolimus 0.057 | idasanutlin -0.069 | alisertib -0.127 | [2] -0.142 | gefitinib -0.034 | [3] 0.035 | lapatinib 0.093 | pictilisib -0.058

HERC2 (UniProt O95714)
inactive: [1] -0.073 | filanesib 0.162 | zotarolimus 0.006 | idasanutlin 0.237 | alisertib 0.07 | [2] -0.131 | gefitinib -0.02 | [3] 0.029 | lapatinib 0.201 | pictilisib 0.045

HBA1 (UniProt P69905)
inactive: [1] -0.037 | filanesib 0.02 | zotarolimus 0.068 | idasanutlin -0.044 | alisertib -0.093 | [2] -0.154 | gefitinib 0.032 | [3] 0.079 | lapatinib 0.036 | pictilisib -0.088
